Data taken from US20240360206A1.
Results are given in words; binding and its absence hold for the method and conditions named. Some entries that bind do so weakly or less than the wild type.

B1: Antibody 1 (antibody, V domains shown)
VH: QSLEESGGRLVTPGTPLTLTCTVSGFSLSSQKVGWVRQAPGKGLEWIGIINNYGSTYYASWAKGRFTISKTSTTVDLRITSLTAEDTATYFCARDPDGSIVFDIWGPGTLVTVSL
VL: AQVLTQTASPVSAAVGGTVTINCQSSQSVVYNNRLSWFQQKPGQPPKLLIYGASTLASGVPSRFKGSGSGTQFTLTISDVQCDDAATYYCLGSYDCSSGDCHAFGGGTEVVVKG
B2: Antibody 2 (antibody, V domains shown)
VH: QSVEESGGRLVTPGTPLTLTCTVSGFSLSSYAMIWVRQAPGKGLEWIGFISRSGITYYASWAKGRFTISKTSTTVDLKMTSLTTEDTATYFCAREFGAVGSDYYRDAFNLWGPGTLVTVSS
VL: DIVMTQTPASVEAAVGGTVTINCQASESINSWLSWYQQKPGQPPNLLIYRASTLASGVPSRFSGGGSGTEYTLTISDLECADAVTYYCQSYYEEDGIGYAFGGGTEVVVEG
B3: Antibody 4 (antibody, V domains shown)
VH: QSLEESGGRLVTPGTPLTLTCTVSGFSLNNYKVGWVRQAPGKGLEWIGIINYYSQTYYASWAKGRFTISKTSTTVDLKLTSPTTEDTATYFCARDPDGSIVFDIWGPGTLVTVSL
VL: AQVLTQTASPVSAAVGSTVTINCQSSQSVYSNKRLAWFQLKPGQPPKLLIYGASTLASGVPSRFKGSGSGTQFTLTISDVQCDDAATYYCAGGYDCSTGDCWTFGGGTEVVVTG
B4: Antibody 5 (antibody, V domains shown)
VH: QSVEESGGGLVTPGGTLTLTCTVSGFSLSNYAMSWVRQAPGKGLEWIGFISRSGITYYASWAKGRFTISKTSTTVDLKITSPTTEDTAAYFCAREFGAVGSDYYRDALRLWGPGTLVTVSS
VL: DIVMTQTPSSVSAAVGGTVTIKCQASQSIGSNLAWYQQKPGQPPKLLIYGASTLESGVPSRFKGSGSGTEYTLTISDLECADAATYYCQSYYEGSDIGYAFGGGTEVVVEG
B5: Antibody 6 (antibody, V domains shown)
VH: QSLEESGGRLVTPGTPLTLTCTVSGIDLSTHAMTWVRQAPGKGLEWIGVINPSGSAYYATWVNGRFTISKTSTTVDLKITSPTTGDTAKYFCARDYITAGDYYMDAFDPWGPGTLVTVSS
VL: DIVMTQTPASVSAAVGGTVTIKCQASQSISNQLSWYQQKSGQPPKLLIYRASTLASGVPSRFKGSGSGTEFTLTISDLECADAATYYCQQGYNRDNVDNLFGGGTEVVVKG

target: Peptide B; assay: indirect ELISA, peptide coated on the plate, HRP goat anti-rabbit antibody, TMB, read at 650 nm; axes without titles, x is a log scale from -8 to -4

Row | Binder | binding
1 | B1 | binds
2 | B2 | binds
3 | B3 | binds
4 | B4 | binds
5 | B5 | binds
